PubChem BioAssay AID743454 | Peter MacCallum Cancer Centre | 2014

- Screen: 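Search for knock-downs that restore vorinostat killing in resistant colon cancer cells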 (primary screen)
- Cell system: human HCT116-VR colon cancer cells, selected for vorinostat resistance
- Reagents: siRNA pool against human genes, 40 nM siRNA pool
- Time to read-out: vorinostat for 24 h, read-out about 72 h after transfection
- Conditions: vorinostat at 2.5 µM final
- Detection: 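Cell viability by CellTiter-Fluor and caspase 3/7 activity by luminescence, each scaled to mock wells per plate, duplicates averaged, then robust z-scored over all plates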
- Reading the numbers: viability robust z-score: higher = more viable cells than screen typical; caspase robust z-score: higher = more caspase 3/7 activity than screen typical
- Call rule: 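a knock-down is a hit when classed RV1 or RV2 for lowered viability, or CA1 or CA2 for caspase activation; those lethal without drug were dropped; hits were retested singly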
Shown is one part, drawn at random, of about 18,000 reagents. 450 of all reagents (2.5%) count as active. 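Single biological run; no consistent viability z cut-off exists, so the class columns, not z-scores, define the calls.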 No sequences are given here.

gene knocked down	viability hit class	caspase hit class	viability robust z-score	caspase robust z-score	outcome
OR2B2 (GeneID 81697)	no change	no change	0.78	-0.1	inactive
TPGS2 (GeneID 25941)	no change	no change	1.21	-0.9	inactive
STRA6 (GeneID 64220)	no change	no change	0.06	-0.34	inactive
HYDIN (GeneID 54768)	no change	no change	-0.12	1	inactive
DTD2 (GeneID 112487)	no change	no change	0.08	-0.97	inactive
KBTBD11 (GeneID 9920)	no change	no change	1.14	0.88	inactive
GNL2 (GeneID 29889)	no change	no change	-2.59	2.1	inactive
JMJD1C (GeneID 221037)	no change	no change	0.67	-1.01	inactive
MAP4K5 (GeneID 11183)	no change	no change	-0.72	-1.25	inactive
RNF126 (GeneID 55658)	no change	no change	-0.18	-0.96	inactive
CCDC83 (GeneID 220047)	no change	no change	-0.41	0.88	inactive
TDRD7 (GeneID 23424)	no change	no change	-1.62	4.78	inactive
DNMT1 (GeneID 1786)	no change	no change	-0.08	3.1	inactive
ZNF441 (GeneID 126068)	no change	CA1 (caspase activation)	0.97	6.79	active
NR4A1 (GeneID 3164)	no change	no change	-0.19	1.16	inactive
MANF (GeneID 7873)	no change	no change	0.73	0.26	inactive
RPUSD2 (GeneID 27079)	no change	no change	1.62	-1	inactive
SLC22A2 (GeneID 6582)	no change	no change	0.55	-0.3	inactive
C1S (GeneID 716)	no change	no change	0.5	-0.92	inactive
TLR2 (GeneID 7097)	no change	no change	-0.6	-1.26	inactive
PRXL2A (GeneID 84293)	no change	no change	1.17	-0.66	inactive
CCDC8 (GeneID 83987)	no change	no change	-0.58	2.29	inactive
SCAMP3 (GeneID 10067)	no change	no change	0.44	2.91	inactive
VPS45 (GeneID 11311)	no change	no change	-0.76	-0.29	inactive
AKAP14 (GeneID 158798)	no change	no change	0.86	0.34	inactive
SEC31B (GeneID 25956)	no change	no change	-0.32	2.81	inactive
DNAJC18 (GeneID 202052)	no change	no change	1.1	-1.04	inactive
LZTR1 (GeneID 8216)	no change	no change	-1.54	1.2	inactive

Part of the list above in another layout:
DTD2 (GeneID 112487)
- viability hit class: no change
- caspase hit class: no change
- viability robust z-score: 0.08
- caspase robust z-score: -0.97
- outcome: inactive

KBTBD11 (GeneID 9920)
- viability hit class: no change
- caspase hit class: no change
- viability robust z-score: 1.14
- caspase robust z-score: 0.88
- outcome: inactive

GNL2 (GeneID 29889)
- viability hit class: no change
- caspase hit class: no change
- viability robust z-score: -2.59
- caspase robust z-score: 2.1
- outcome: inactive

JMJD1C (GeneID 221037)
- viability hit class: no change
- caspase hit class: no change
- viability robust z-score: 0.67
- caspase robust z-score: -1.01
- outcome: inactive

MAP4K5 (GeneID 11183)
- viability hit class: no change
- caspase hit class: no change
- viability robust z-score: -0.72
- caspase robust z-score: -1.25
- outcome: inactive

RNF126 (GeneID 55658)
- viability hit class: no change
- caspase hit class: no change
- viability robust z-score: -0.18
- caspase robust z-score: -0.96
- outcome: inactive

CCDC83 (GeneID 220047)
- viability hit class: no change
- caspase hit class: no change
- viability robust z-score: -0.41
- caspase robust z-score: 0.88
- outcome: inactive

TDRD7 (GeneID 23424)
- viability hit class: no change
- caspase hit class: no change
- viability robust z-score: -1.62
- caspase robust z-score: 4.78
- outcome: inactive

DNMT1 (GeneID 1786)
- viability hit class: no change
- caspase hit class: no change
- viability robust z-score: -0.08
- caspase robust z-score: 3.1
- outcome: inactive

The results go on:
gene knocked down	viability hit class	caspase hit class	viability robust z-score	caspase robust z-score	outcome
MCM5 (GeneID 4174)	no change	no change	-1.32	2.7	inactive
PAK4 (GeneID 10298)	no change	no change	0.32	-0.42	inactive
PLAAT1 (GeneID 57110)	no change	no change	-0.84	-0.92	inactive
CRYBB2 (GeneID 1415)	no change	no change	-0.18	-1.06	inactive
ZNF529 (GeneID 57711)	no change	no change	-0.04	0.12	inactive
AVP (GeneID 551)	RV2 (reduced viability)	no change	-2.94	-1.45	active
ADAD1 (GeneID 132612)	no change	no change	0.1	-0.92	inactive
DNALI1 (GeneID 7802)	no change	no change	0.02	-1.1	inactive
DOK2 (GeneID 9046)	no change	no change	-1.29	1.36	inactive
EXOC7 (GeneID 23265)	no change	no change	-0.74	-1.06	inactive
TMEM128 (GeneID 85013)	no change	no change	-0.48	-1.17	inactive
OR51B6 (GeneID 390058)	no change	no change	0.8	-0.21	inactive
IMPACT (GeneID 55364)	no change	no change	-2	2.72	inactive
NRAS (GeneID 4893)	no change	no change	0.5	0.12	inactive
SLC35A1 (GeneID 10559)	no change	no change	-0.3	0.1	inactive
PSME3 (GeneID 10197)	no change	no change	-1.23	0.41	inactive
BCAT1 (GeneID 586)	no change	no change	0.84	-0.68	inactive
SERPINA6 (GeneID 866)	no change	no change	0.44	-0.16	inactive
LINGO1 (GeneID 84894)	no change	no change	-1.01	-0.28	inactive
TMEM141 (GeneID 85014)	no change	no change	-1.17	0.18	inactive
GTPBP6 (GeneID 8225)	no change	no change	0.52	-0.12	inactive
NUP155 (GeneID 9631)	no change	no change	-0.12	1.02	inactive
HACL2 (GeneID 10994)	no change	no change	-1.12	2.73	inactive
TRAM1 (GeneID 23471)	no change	no change	0.66	2.9	inactive
AP5Z1 (GeneID 9907)	no change	no change	0.76	-0.98	inactive
C4BPB (GeneID 725)	no change	no change	1.16	-0.69	inactive
TFE3 (GeneID 7030)	no change	no change	0.3	-0.53	inactive
CDCA7 (GeneID 83879)	no change	no change	-0.44	1.04	inactive
POMC (GeneID 5443)	no change	no change	0.69	-0.25	inactive
